Experimental findings from PMC4139204, “Insight into the Architecture of the NuRD Complex” (The Journal of Biological Chemistry, 2014) are described below.

Amino acid sequences for entries named in this document (tags omitted). A change or cut given only in a name is not applied to a line headed by its entry. Chains listed by the source or under a name are the forms on record and can include a tag or linker.
UniProt Q24572: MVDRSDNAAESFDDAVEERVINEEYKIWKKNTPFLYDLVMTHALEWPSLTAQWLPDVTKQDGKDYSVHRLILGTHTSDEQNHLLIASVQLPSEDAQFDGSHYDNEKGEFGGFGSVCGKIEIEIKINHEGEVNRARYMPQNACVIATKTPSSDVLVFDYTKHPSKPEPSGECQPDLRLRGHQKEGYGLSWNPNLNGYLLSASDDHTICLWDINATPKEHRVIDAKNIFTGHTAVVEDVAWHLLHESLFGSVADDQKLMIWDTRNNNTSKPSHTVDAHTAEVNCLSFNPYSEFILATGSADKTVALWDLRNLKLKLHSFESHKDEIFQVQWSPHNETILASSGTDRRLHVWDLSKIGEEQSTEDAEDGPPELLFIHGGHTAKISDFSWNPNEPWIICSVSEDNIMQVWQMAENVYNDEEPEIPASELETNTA
protein A-tagged Nurf55mut (Q24572, form named): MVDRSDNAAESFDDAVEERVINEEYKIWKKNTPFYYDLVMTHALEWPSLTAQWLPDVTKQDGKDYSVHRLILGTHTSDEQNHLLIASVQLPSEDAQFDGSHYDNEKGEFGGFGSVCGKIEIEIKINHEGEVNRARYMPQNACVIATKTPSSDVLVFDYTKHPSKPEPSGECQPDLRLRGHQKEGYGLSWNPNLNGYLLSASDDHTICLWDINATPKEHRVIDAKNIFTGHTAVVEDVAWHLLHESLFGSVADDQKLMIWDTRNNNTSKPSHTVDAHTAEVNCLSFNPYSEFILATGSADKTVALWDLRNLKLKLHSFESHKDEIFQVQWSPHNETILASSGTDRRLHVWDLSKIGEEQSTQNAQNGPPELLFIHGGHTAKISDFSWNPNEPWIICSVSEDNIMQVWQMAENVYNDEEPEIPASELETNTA
UniProt Q94517: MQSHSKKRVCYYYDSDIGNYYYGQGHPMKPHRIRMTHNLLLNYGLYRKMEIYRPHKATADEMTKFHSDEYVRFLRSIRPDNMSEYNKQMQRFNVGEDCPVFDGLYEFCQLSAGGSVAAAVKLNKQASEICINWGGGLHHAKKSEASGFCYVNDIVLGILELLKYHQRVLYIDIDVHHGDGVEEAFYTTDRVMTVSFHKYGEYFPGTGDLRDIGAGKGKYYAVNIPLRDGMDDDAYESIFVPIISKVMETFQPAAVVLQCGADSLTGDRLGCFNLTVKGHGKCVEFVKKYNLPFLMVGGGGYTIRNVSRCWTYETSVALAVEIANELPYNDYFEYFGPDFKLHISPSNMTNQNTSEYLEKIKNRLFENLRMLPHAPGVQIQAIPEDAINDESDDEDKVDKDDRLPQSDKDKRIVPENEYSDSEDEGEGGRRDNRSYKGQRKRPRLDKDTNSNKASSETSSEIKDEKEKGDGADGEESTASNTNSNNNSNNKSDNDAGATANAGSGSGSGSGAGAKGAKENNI
UniProt O97159: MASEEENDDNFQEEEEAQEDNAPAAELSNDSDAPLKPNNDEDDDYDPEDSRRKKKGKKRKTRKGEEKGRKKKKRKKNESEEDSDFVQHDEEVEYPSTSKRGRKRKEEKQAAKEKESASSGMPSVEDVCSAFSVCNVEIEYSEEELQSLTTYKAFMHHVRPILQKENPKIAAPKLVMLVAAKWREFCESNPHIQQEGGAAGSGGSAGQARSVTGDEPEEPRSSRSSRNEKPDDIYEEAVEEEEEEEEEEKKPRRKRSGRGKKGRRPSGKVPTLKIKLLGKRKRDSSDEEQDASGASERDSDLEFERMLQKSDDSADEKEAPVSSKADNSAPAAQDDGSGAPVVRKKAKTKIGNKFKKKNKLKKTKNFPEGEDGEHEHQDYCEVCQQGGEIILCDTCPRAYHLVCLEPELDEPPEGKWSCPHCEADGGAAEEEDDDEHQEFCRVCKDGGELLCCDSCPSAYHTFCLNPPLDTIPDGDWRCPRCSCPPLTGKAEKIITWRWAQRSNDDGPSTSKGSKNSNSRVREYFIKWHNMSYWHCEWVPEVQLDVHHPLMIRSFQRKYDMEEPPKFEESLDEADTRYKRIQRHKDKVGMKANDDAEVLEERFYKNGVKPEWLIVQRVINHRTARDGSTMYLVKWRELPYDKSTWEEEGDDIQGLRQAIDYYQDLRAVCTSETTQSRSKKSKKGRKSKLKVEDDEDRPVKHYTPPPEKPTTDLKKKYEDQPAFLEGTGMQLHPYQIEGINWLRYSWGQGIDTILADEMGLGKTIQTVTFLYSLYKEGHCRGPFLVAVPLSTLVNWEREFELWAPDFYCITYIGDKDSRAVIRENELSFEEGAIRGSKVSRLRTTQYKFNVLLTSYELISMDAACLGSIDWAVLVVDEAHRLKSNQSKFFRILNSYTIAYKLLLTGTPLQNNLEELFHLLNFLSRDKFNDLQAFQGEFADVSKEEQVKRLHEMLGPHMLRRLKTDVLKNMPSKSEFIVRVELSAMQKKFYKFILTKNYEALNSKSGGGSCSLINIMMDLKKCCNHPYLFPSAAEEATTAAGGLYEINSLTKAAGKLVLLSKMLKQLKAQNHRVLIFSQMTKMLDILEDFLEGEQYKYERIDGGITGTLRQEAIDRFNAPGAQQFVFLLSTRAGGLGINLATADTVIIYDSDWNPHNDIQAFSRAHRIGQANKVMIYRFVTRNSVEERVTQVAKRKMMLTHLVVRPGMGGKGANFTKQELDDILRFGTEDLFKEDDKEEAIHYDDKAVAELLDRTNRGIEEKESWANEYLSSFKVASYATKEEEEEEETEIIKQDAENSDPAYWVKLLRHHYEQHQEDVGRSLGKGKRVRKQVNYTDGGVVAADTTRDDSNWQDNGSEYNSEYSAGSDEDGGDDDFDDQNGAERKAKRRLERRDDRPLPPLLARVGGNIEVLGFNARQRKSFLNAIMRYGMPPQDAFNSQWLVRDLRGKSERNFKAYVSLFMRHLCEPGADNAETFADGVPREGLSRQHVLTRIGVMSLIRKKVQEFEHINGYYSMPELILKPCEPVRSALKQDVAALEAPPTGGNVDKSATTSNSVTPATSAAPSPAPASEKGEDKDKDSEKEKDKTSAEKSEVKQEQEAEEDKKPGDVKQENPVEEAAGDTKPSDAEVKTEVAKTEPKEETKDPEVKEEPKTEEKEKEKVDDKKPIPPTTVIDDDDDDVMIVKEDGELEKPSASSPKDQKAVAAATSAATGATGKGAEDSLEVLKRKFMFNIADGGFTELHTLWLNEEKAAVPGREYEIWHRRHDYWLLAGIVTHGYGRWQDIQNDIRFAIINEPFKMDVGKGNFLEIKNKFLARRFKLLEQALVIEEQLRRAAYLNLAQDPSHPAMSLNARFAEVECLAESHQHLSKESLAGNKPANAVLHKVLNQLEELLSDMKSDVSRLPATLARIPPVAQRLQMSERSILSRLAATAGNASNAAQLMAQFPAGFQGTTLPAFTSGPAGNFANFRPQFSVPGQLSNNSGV

For assay [1], the target named is GFP-tagged wild-type Nurf55 (D. melanogaster) (UniProt Q24572). The experiment in a line: affinity purification with mass spectrometry; GFP-tagged Nurf55 or Nurf55mut stably expressed in Dmel-2 cells; purified on beads with a covalently attached anti-GFP nanobody; mass spectrometry, in triplicate.
In assay [2] the target is protein A-tagged wild-type Nurf55 (D. melanogaster) (UniProt Q24572). As to the kind of experiment: affinity purification with mass spectrometry; protein A-tagged Nurf55 or Nurf55mut stably expressed in Dmel-2 cells; purified on IgG beads; interactors identified by mass spectrometry.
Assay [3] concerns the target protein A-tagged Nurf55mut (D. melanogaster) (UniProt Q24572). The description is as above.

No constants are given. Whether binding was seen depends on the method and setting. In cells and extracts the contact can be indirect. Here binding means that the protein was enriched with, or labelled near, the bait; the list need not be complete. For part of these data: No binding means not detected with the bait.

Turning to “Rpd3 (dHDAC) (from UniProt Q94517 1-521)”, the binding entry is reported as “binds” in assay [1], “binds” in assay [2] and “no binding” in assay [3].

Take “Mi-2 (dCHD) (from UniProt O97159 1-1982)”: the binding result in assay [1] is “binds”; in assay [2], “binds”; in assay [3], “no binding”.
